In doi:10.1101/2020.06.05.136671:
Results are given in words; binding and its absence hold for the method and conditions named. Binding seen in cells or lysates may run through a third protein. Some entries that bind do so weakly or less than the wild type.

Amino acid sequences for entries named in this document (tags omitted).
UniProt Q9UKM9, whole entry: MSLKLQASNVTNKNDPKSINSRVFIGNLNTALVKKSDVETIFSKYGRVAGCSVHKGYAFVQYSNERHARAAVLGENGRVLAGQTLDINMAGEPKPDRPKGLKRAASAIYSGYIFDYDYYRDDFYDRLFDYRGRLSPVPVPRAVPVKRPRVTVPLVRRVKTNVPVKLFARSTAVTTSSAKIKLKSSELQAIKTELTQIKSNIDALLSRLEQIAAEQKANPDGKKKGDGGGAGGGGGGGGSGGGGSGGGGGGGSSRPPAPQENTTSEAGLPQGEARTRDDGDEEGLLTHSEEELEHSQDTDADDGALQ
UniProt P07910, whole entry: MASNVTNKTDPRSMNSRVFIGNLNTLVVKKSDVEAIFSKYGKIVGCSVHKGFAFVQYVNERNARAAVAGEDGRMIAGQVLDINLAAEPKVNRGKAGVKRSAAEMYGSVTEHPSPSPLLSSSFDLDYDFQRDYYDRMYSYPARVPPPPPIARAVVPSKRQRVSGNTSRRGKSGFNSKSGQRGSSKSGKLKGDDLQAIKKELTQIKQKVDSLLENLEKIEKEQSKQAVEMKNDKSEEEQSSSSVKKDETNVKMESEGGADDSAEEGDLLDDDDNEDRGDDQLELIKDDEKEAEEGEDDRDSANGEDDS
UniProt P03243, whole entry: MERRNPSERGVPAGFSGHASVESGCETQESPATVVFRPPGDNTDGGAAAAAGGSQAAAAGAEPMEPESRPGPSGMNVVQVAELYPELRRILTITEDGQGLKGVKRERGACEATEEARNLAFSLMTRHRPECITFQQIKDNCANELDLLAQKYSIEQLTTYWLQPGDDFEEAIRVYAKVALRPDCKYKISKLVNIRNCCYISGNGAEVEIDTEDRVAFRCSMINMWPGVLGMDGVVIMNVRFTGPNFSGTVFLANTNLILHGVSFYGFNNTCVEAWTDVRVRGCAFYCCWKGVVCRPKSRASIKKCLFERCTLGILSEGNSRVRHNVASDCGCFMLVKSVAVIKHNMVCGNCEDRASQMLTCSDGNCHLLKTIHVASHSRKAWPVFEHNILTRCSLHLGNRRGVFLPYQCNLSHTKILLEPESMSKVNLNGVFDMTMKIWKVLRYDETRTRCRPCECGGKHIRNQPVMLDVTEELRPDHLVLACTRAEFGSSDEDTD
UniProt P03265, whole entry: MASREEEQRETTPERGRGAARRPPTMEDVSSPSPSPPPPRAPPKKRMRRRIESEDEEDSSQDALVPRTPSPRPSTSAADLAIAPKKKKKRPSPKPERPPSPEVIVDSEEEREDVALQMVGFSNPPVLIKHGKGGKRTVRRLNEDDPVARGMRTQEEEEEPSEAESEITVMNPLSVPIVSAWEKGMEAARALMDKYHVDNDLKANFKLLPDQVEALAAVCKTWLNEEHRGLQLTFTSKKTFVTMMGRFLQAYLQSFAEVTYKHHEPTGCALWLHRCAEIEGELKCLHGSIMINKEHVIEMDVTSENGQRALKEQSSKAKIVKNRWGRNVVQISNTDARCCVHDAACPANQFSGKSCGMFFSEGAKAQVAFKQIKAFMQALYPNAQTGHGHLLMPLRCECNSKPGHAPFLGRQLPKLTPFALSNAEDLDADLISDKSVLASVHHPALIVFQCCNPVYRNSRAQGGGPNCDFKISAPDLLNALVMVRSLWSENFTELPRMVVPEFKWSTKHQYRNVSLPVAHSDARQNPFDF

What was measured:
Assay in all cases: co-IP
[1] = target: RALY (human (endogenous in HeLa)) (UniProt Q9UKM9)
[2] = target: hnRNP-C (human (endogenous in HeLa)) (UniProt P07910)
[3] = target: Adenovirus serotype 5 (Ad5) E1B55K (Adenovirus serotype 5 (Ad5)) (UniProt P03243)

Row | Substance | binding [1] | binding [2] | binding [3]
1 | Adenovirus serotype 5 (Ad5) E1B55K (from UniProt P03243 1-496) | binds | binds | –
2 | RALY (from UniProt Q9UKM9 1-306) | – | – | binds
3 | Adenovirus serotype 5 DBP (from UniProt P03265 1-529) | no binding | no binding | no binding
